These are yes or no findings as the source states them, for the method shown. Binding seen in cells or lysates may run through a third protein. Some binding calls cover weakened binding; strength is not graded here.

This assay addresses T1, N-acetyltransferase 10 (NAT10) (human (endogenous in HaCaT)) (UniProt Q9H0A0).
T1 sequence: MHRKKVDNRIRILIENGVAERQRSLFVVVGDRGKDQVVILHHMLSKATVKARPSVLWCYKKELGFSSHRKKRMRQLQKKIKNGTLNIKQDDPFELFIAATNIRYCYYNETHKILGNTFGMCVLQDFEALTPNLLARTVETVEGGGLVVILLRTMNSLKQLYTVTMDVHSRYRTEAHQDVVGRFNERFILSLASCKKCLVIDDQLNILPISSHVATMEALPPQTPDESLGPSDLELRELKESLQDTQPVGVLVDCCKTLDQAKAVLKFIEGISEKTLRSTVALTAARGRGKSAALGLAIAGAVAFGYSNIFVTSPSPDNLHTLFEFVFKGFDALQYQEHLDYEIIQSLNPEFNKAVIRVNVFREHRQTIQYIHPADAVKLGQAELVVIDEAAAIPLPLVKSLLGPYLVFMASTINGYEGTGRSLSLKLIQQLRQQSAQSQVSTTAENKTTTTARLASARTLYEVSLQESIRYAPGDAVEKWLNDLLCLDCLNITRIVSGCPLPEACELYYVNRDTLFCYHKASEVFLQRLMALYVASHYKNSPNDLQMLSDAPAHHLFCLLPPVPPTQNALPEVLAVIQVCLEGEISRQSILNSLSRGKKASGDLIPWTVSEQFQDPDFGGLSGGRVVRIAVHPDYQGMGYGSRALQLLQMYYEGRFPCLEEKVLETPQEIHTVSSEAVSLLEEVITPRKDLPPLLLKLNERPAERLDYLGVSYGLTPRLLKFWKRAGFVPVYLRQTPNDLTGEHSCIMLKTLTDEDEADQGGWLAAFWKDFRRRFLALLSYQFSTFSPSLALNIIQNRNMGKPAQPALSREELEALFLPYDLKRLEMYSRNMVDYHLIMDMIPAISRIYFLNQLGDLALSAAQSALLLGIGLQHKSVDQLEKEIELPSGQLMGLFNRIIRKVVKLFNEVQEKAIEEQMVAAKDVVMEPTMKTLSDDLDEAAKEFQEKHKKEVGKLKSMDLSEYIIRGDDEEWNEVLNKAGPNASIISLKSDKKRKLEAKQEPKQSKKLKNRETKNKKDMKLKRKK
In words: co-IP; HaCaT lysates, anti-NAT10 antibody or species-matched control IgG on magnetic beads, immunoblot for NBR1, p62 and NAT10; cells exposed to UVB and treated with 250 uM or 1000 uM NGR1.

As to “p62 (Sequestosome 1) (from UniProt Q13501 1-440)”, the binding result is “binds”.

The record behind these values is PMC12713273.
